Experimental data taken from ChEMBL document CHEMBL1629563, “Pharmacokinetic and safety evaluation of BILR 355, a second-generation nonnucleoside reverse transcriptase inhibitor, in healthy volunteers” (Antimicrob Agents Chemother, 2008).
Further values from the same series stand in other lists.

Legend:
Details in all cases: in vivo
Homo sapiens [1] = test: Toxicity in healthy human assessed as occurrence of vomiting at 1 mg, po administered as single dose relative to control; type: organism-based
Homo sapiens [2] = test: Toxicity in healthy human assessed as occurrence of vomiting at 5 mg, po administered as single dose relative to control; type: organism-based
Homo sapiens [3] = test: Toxicity in healthy human assessed as occurrence of vomiting at 25 mg, po administered as single dose relative to control; type: organism-based
Homo sapiens [4] = test: Toxicity in healthy human assessed as occurrence of vomiting at 100 mg, po administered as single dose relative to control; type: organism-based
Homo sapiens [5] = test: Toxicity in healthy human assessed as occurrence of migraine at 75 mg, po administered as single dose relative to control; type: organism-based
Homo sapiens [6] = test: Toxicity in healthy human assessed as occurrence of increase in alanine aminotransferase level at 5 mg, po administered as single dose relative to control; type: organism-based
Homo sapiens [7] = test: Toxicity in healthy human assessed as occurrence of maculopapular rash at 12.5 mg, po administered as single dose relative to control; type: organism-based
Homo sapiens [8] = test: Toxicity in healthy human assessed as occurrence of maculopapular rash at 25 mg, po administered as single dose relative to control; type: organism-based
Homo sapiens [9] = test: Toxicity in healthy human assessed as occurrence of maculopapular rash at 50 mg, po administered as single dose relative to control; type: organism-based
Homo sapiens [10] = test: Toxicity in healthy human assessed as occurrence of constipation at 12.5 mg, po administered as single dose relative to control; type: organism-based
Homo sapiens [11] = test: Toxicity in healthy human assessed as occurrence of constipation at 75 mg, po administered as single dose relative to control; type: organism-based
Homo sapiens [12] = test: Toxicity in healthy human assessed as occurrence of constipation at 100 mg, po administered as single dose relative to control; type: organism-based
Homo sapiens [13] = test: Toxicity in healthy human assessed as occurrence of neurological eyelid disorder at 12.5 mg, po administered as single dose relative to control; type: organism-based
Homo sapiens [14] = test: Toxicity in healthy human assessed as occurrence of neurological eyelid disorder at 50 mg, po administered as single dose relative to control; type: organism-based
Homo sapiens [15] = test: Toxicity in healthy human assessed as occurrence of flatulence at 5 mg, po administered as single dose relative to control; type: organism-based
Homo sapiens [16] = test: Toxicity in healthy human assessed as occurrence of flatulence at 25 mg, po administered as single dose relative to control; type: organism-based
Homo sapiens [17] = test: Toxicity in healthy human assessed as occurrence of flatulence at 75 mg, po administered as single dose relative to control; type: organism-based
Homo sapiens [18] = test: Toxicity in healthy human assessed as occurrence of flatulence at 100 mg, po administered as single dose relative to control; type: organism-based
Homo sapiens [19] = test: Toxicity in healthy human assessed as occurrence of herpes simplex at 1 mg, po administered as single dose relative to control; type: organism-based
Homo sapiens [20] = test: Toxicity in healthy human assessed as occurrence of herpes simplex at 25 mg, po administered as single dose relative to control; type: organism-based
Homo sapiens [21] = test: Toxicity in healthy human assessed as occurrence of aphthous stomatitis at 5 mg, po administered as single dose coadministered with 100 mg of ritonavir; type: organism-based
Homo sapiens [22] = test: Toxicity in healthy human assessed as occurrence of aphthous stomatitis at 12.5 mg, po administered as single dose coadministered with 100 mg of ritonavir; type: organism-based
Homo sapiens [23] = test: Toxicity in healthy human assessed as occurrence of aphthous stomatitis at 25 mg, po administered as single dose coadministered with 100 mg of ritonavir; type: organism-based
Homo sapiens [24] = test: Toxicity in healthy human assessed as occurrence of aphthous stomatitis at 37.5 mg, po administered as single dose coadministered with 100 mg of ritonavir; type: organism-based
Homo sapiens [25] = test: Toxicity in healthy human assessed as occurrence of aphthous stomatitis at 87.5 mg, po administered as single dose coadministered with 100 mg of ritonavir; type: organism-based
Homo sapiens [26] = test: Toxicity in healthy human assessed as occurrence of diarrhea at 37.5 mg, po administered as single dose coadministered with 100 mg of ritonavir; type: organism-based
Homo sapiens [27] = test: Toxicity in healthy human assessed as occurrence of diarrhea at 75 mg, po administered as single dose coadministered with 100 mg of ritonavir; type: organism-based
Homo sapiens [28] = test: Toxicity in healthy human assessed as occurrence of diarrhea at 100 mg, po administered as single dose; type: organism-based
Homo sapiens [29] = test: Toxicity in healthy human assessed as occurrence of maculopapular rash at 50 mg, po administered as single dose coadministered with 100 mg of ritonavir; type: organism-based
Homo sapiens [30] = test: Toxicity in healthy human assessed as occurrence of maculopapular rash at 87.5 mg, po administered as single dose coadministered with 100 mg of ritonavir; type: organism-based
Homo sapiens [31] = test: Toxicity in healthy human assessed as occurrence of abdominal pain at 5 mg, po administered as single dose relative to control; type: organism-based, Abdomen
Homo sapiens [32] = test: Toxicity in healthy human assessed as occurrence of abdominal pain at 50 mg, po administered as single dose relative to control; type: organism-based, Abdomen
Homo sapiens [33] = test: Toxicity in healthy human assessed as occurrence of fatigue at 1 mg, po administered as single dose relative to control; type: organism-based
Homo sapiens [34] = test: Toxicity in healthy human assessed as occurrence of fatigue at 50 mg, po administered as single dose relative to control; type: organism-based
Homo sapiens [35] = test: Toxicity in healthy human assessed as occurrence of fatigue at 100 mg, po administered as single dose relative to control; type: organism-based
Homo sapiens [36] = test: Toxicity in healthy human assessed as occurrence of headache at 1 mg, po administered as single dose relative to control; type: organism-based
Homo sapiens [37] = test: Toxicity in healthy human assessed as occurrence of nausea at 1 mg, po administered as single dose relative to control; type: organism-based

With CCN1c2ncc(CCOc3cc[n+]([O-])c4ccccc34)cc2C(=O)N(C)c2cccnc21 [BILR 355] the Activity (Homo sapiens [1]) was 0%, the Activity (Homo sapiens [2]) was 0% and the Activity (Homo sapiens [3]) was 0%. It also gave an Activity (Homo sapiens [4]) of 0%, an Activity (Homo sapiens [5]) of 0% and an Activity (Homo sapiens [6]) of 16.7%. For the same molecule, the Activity (Homo sapiens [7]) was 0%, the Activity (Homo sapiens [8]) was 16.7% and the Activity (Homo sapiens [9]) was 0%. The Activity (Homo sapiens [10]) was 0%, the Activity (Homo sapiens [11]) was 0% and the Activity (Homo sapiens [12]) was 0%. For the same molecule, the Activity (Homo sapiens [13]) was 0%, the Activity (Homo sapiens [14]) was 0% and the Activity (Homo sapiens [15]) was 0%. For the same molecule, the Activity (Homo sapiens [16]) was 0%, the Activity (Homo sapiens [17]) was 16.7% and the Activity (Homo sapiens [18]) was 0%. The Activity (Homo sapiens [19]) was 0%, the Activity (Homo sapiens [20]) was 0% and the Activity (Homo sapiens [21]) was 14.3%. For the same molecule, the Activity (Homo sapiens [22]) was 0%, the Activity (Homo sapiens [23]) was 16.7% and the Activity (Homo sapiens [24]) was 0%. It also gave an Activity (Homo sapiens [25]) of 0%, an Activity (Homo sapiens [26]) of 0% and an Activity (Homo sapiens [27]) of 0%. It also gave an Activity (Homo sapiens [28]) of 8.3%, an Activity (Homo sapiens [29]) of 0% and an Activity (Homo sapiens [30]) of 16.7%. It also gave an Activity (Homo sapiens [31]) of 0%, an Activity (Homo sapiens [32]) of 0% and an Activity (Homo sapiens [33]) of 16.7%. The Activity (Homo sapiens [34]) was 16.7%, the Activity (Homo sapiens [35]) was 20% and the Activity (Homo sapiens [36]) was 0%. It also gave an Activity (Homo sapiens [37]) of 0%.
